Percent effect of library compounds

Source: ChEMBL document CHEMBL3988442, “University of Dundee, Small-Polar-MMV Screening Library” (2021).

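Whole-parasite assay of Trypanosoma brucei over 72 hours; the read-out is not stated. Concentration: 10 µM. Direction is inferred from retests: higher values go with stronger inhibition. Values scatter widely below zero; nearly all retest evidence comes from the higher of the two concentrations used. About 2,700 compounds were tested under these conditions; 0.51% (about 14) showed 50% or more at least once.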

The filed quantity is “Percent Effect” (%).
The record does not define 0% and 100%; most values in the screen are far below 50% and negative numbers occur (in some assays of this library far below -100).
The compounds are a random part of those screened.

structure	percent effect
CCOc1ccc(C(=O)N2CCCC2c2c(C)nn(C)c2OC)cn1 (stereo not drawn)	-34.21%
CCNc1cc2c(nn1)CCN(C(=O)c1cc3ccccc3o1)C2	-51.84%
O=C(NCc1nnc2n1CCCCC2)N1CCc2ccccc2C1	-20.07%
O=C(CCc1c(F)cccc1F)N1CCCCC1Cn1cccn1 (stereo not drawn)	-17.26%
CCn1ncc2c1CCCC2NCc1ccccc1N1CCOCC1 (stereo not drawn)	-25.14%
CN1CCOC(CNCc2csc(C3CCCCC3)n2)C1 (stereo not drawn)	-32.91%
Cc1cc(C(=O)NCC(C)N2CCc3ccccc32)on1 (stereo not drawn)	-66.95%
Cc1cnn(CC2CCCN2CC(=O)Nc2cc(C)on2)c1 (stereo not drawn)	-41.18%
COc1ccc(C)cc1CN(C)CC(=O)NC1(C)CCS(=O)(=O)C1 (stereo not drawn)	-31.93%
Cc1ccc(C(CNC(=O)NCc2ccccn2)N2CCOCC2)o1 (stereo not drawn)	-25.66%
O=C(c1ccc2nncn2c1)N1CCCCC1Cn1cccn1 (stereo not drawn)	-29.53%
CNS(=O)(=O)c1cccc(C(=O)N(C)Cc2ccsc2)c1	-54.9%
NC(=O)C1CCCN(c2ccc(CNC(=O)c3cnsn3)cc2)C1 (stereo not drawn)	-5.378%
CCc1n[nH]c(C2CN(C(=O)c3cc4c(s3)CCC4)CCO2)n1 (stereo not drawn)	-55.5%
COC(=O)c1cccn1C1CCN(S(=O)(=O)c2ccccc2)CC1	-46.32%
CN(Cc1cccc(F)c1)C(=O)CN1CCOC(Cn2cncn2)C1 (stereo not drawn)	15.07%
CCc1nc(CN2CCN(C(C)c3nc(C4CC4)no3)CC2)no1 (stereo not drawn)	-52.28%
Cn1ccc(C(=O)NCc2ccc(CN3CCCC3)cc2)cc1=O	-26.2%
CCN1CCN(C(=O)NCc2cccnc2-n2cccn2)CC1	-36.38%
CC(O)(CN1CCC(O)CC1)c1cccc(C(F)(F)F)c1 (stereo not drawn)	-50.93%
CCNc1cc2c(nn1)CCN(C(=O)c1ccoc1)C2	-33.55%
Cc1cc(C)n(CC2CCCN2C(=O)c2cnc3n[nH]c(C)c3c2)n1 (stereo not drawn)	-46.13%
Cc1nccc(C(=O)N2CCCC2c2c(C)nn(C)c2C)n1 (stereo not drawn)	-52.85%
CCc1nc(C2CCCN2Cc2cc(=O)n(C)c(=O)n2C)no1 (stereo not drawn)	-19.59%
CC(C)OCCCNC(=O)CS(=O)(=O)Cc1ccc(Cl)cc1	-51.08%
CN(CC(N)=O)CC(=O)N1CC=C(c2ccccc2)CC1	-48%
FC(F)(F)COCCN1CCOC(Cn2cccn2)C1 (stereo not drawn)	-22.43%
Cn1ccnc1C(NCc1ccccc1)c1ccc(F)cc1 (stereo not drawn)	-73.4%
Cc1cnn(CC2CN(Cc3csc(C(C)C)n3)CCO2)c1 (stereo not drawn)	-66.54%
O=C(CN1CCCC(Cn2cncn2)C1)NCCc1cccs1 (stereo not drawn)	-18.6%
CC(=O)N(Cc1ncc(C)o1)C1CCN(Cc2csc(C)n2)C1 (stereo not drawn)	-44.33%
O=C(COc1ccc2c(c1)CCC2)NS(=O)(=O)c1cccnc1	-70.49%
CC(C)c1nc(C2CCCN(C(=O)CCCn3cccn3)C2)no1 (stereo not drawn)	-39.03%
CCc1ncc2c(n1)CN(C(C)C(=O)Nc1ccc(Cl)cn1)CC2 (stereo not drawn)	-43.97%
Cc1ccc(C(O)CN2CCN(Cc3nccn3C)CC2)cc1C (stereo not drawn)	-44.2%
CN(CC(=O)N1CCC(COc2ccccc2)CC1)c1cnccn1	-22.41%
COc1ccc(CCNC(=O)N2CCCC(c3nncn3C)C2)cc1 (stereo not drawn)	-41.38%

Once more, the final 3:

structure,percent effect
Cc1ccc(C(O)CN2CCN(Cc3nccn3C)CC2)cc1C (stereo not drawn),-44.2%
CN(CC(=O)N1CCC(COc2ccccc2)CC1)c1cnccn1,-22.41%
COc1ccc(CCNC(=O)N2CCCC(c3nncn3C)C2)cc1 (stereo not drawn),-41.38%